{
  "source": "patent EP1550446A1",
  "about": "“Use of 1-(5-isoquinolinesulfonyl) homopiperazine for treating and preventing hypopigmentary disorders” (priority 2003, dated 2005)",
  "tested_on": "human melanoma cell line (Mel-Ho)",
  "experiment": "Melanocyte dendrite outgrowth assay",
  "format": "cell-based",
  "details": "20µM, positive control, treated for 24 hours, Mel-Ho cells (Figure 1)",
  "source_text": "A possibility to test the effect of a compound on melanocyte function as a measure for pigmentation, the melanocyte dendrite outgrowth assay can be performed. Vitiligo melanocytes for example have only stubby dendrites. Increasing dendricity as a prerequisite for the transfer of the melanosomes from melanocytes to the surrounding keratinocytes rescues this defect. For this assay, cells from a human melanoma cell line (Mel-Ho) were obtained from DSMZ (Deutsche Sammlung für Mikroorganismen und Zellkulturen) and were cultured according to the protocol provided by DSMZ. In short, after thawing the melanocytes were cultured in T-75 flasks in melanocyte culture media (provided by the manufacturer) until they reach 70-80% confluency. The melanocytes were then trypsinized, transferred into 5-10 new T-75 flasks, and grown again to same confluency as described above. After this expansion step the melanocytes were immediately used for the Melanocyte Dendrite Outgrowth Assay or were frozen for later use. […] Forskolin is known to cause increased melanocyte dendricity and was used as a positive control. […] Melanocyte dendrite outgrowth was documented by digital photography (Canon G2 Powershot) after 3, 6 and 24 hours.",
  "note": "“Also recorded” adds a separate entry of the source. At least one structure is not confirmed: it was looked up by name or label, or the drawing left a doubt.",
  "data": [
    {"smiles": "C=C[C@@]1(C)CC(=O)[C@]2(O)[C@@]3(C)[C@@H](O)CCC(C)(C)[C@@H]3[C@H](O)[C@H](OC(C)=O)[C@@]2(C)O1", "note": "[Forskolin]", "values": [
      {"measurement": "dendrite formation (dendricity)", "value": "drendrite formation; also recorded: dendrites are clearly visible"}
    ]}
  ]
}
